Measured values reported in PubChem BioAssay AID248 (DTP/NCI, 2004).
The list shows only some results of the screen, not a fair sample: it is rich in T/C values a quarter to a half above the control, in often repeated tests (any T/C) and in doses without a T/C. Further doses and runs are listed elsewhere. T/C: endpoint of the treated group in % of that of the vehicle group. Some entries give survivors of the animals treated and no T/C: the source files T/C as zero there, which appears to mark a toxic dose or a test without result, not a measured value. Some survivor counts are full or nearly so, which does not show that the dose was tolerated: the source hardly ever lists a survival T/C far under the control, and the zero likely stands for such cases as well. Survivors were counted at the toxicity check, usually on the fifth day, unless a day is given; later deaths do not show. Schedule codes are those of the source, read here as Q, the interval in days (D) or hours (H), X, the number of doses. Some schedules carry Z or #; the key to these is not given. Some doses were run more than once; the results are listed from low to high. Where survival is the endpoint, the PubChem record calls one and a half times the control and up active, and a quarter to a half above the control has no call in these data; cut-offs in other NCI protocols can differ. Some T/C values carry the count of animals alive at the toxicity check (mostly the fifth day); where none is given, no animal had died by that day.

System: L1210 leukemia ip in BDF1 mice, survival T/C
Assay: NCI In Vivo Anticancer Drug Screen. Data for tumor model L1210 Leukemia (intraperitoneal) in B6D2F1 (BDF1) mice
Details: higher T/C = longer survival
[1] = T/C endpoint: mean survival time, dose: 400.0 mg/kg/injection, schedule: Q01DX001 (ip), vehicle: saline
[2] = T/C endpoint: mean survival time, dose: 400.0 mg/kg/injection, schedule: Q01DX009 (ip), vehicle: saline
[3] = T/C endpoint: mean survival time, dose: 400.0 mg/kg/injection, schedule: Q04DX003 (ip), vehicle: Klucel (hydroxypropylcellulose) (HPC)

Q: How did the survivor count [1] turn out when C=C(COC(C)(C)C)CN(C)C was run?
A: 0 of 6

Q: Which survivor count [1] does the source give for COc1ccccc1/C=C(\SS/C(=C/c1ccccc1OC)C(=O)O)C(=O)O here?
A: 2 of 4

Q: For Cc1cnc(SCc2ccc(F)cc2)nc1N(C)C, which survivor count (T/C endpoint: mean survival time, dose: 200.0 mg/kg/injection, schedule: Q01DX Z (ip), vehicle: methylcellulose (MC)) is on record?
A: 1 of 6

Q: What does the source list for NCCc1ccc(O)c(O)c1?
A: T/C (T/C endpoint: mean survival time, dose: 100.0 mg/kg/injection, schedule: Q01DX009 (ip), vehicle: Klucel (hydroxypropylcellulose) (HPC)): 131 % of control [5 of 6 alive]; T/C (T/C endpoint: mean survival time, dose: 100.0 mg/kg/injection, schedule: Q01DX009 (ip), vehicle: saline): 128 % of control; T/C (T/C endpoint: mean survival time, dose: 100.0 mg/kg/injection, schedule: Q03HX004 (ip), vehicle: saline): 128 % of control [4 of 6 alive]; T/C (T/C endpoint: mean survival time, dose: 200.0 mg/kg/injection, schedule: Q01DX009 (ip), vehicle: Klucel (hydroxypropylcellulose) (HPC)): 127 % of control; T/C (T/C endpoint: mean survival time, dose: 200.0 mg/kg/injection, schedule: Q01DX009 (ip), vehicle: saline): 133 and 146 % of control; T/C (T/C endpoint: mean survival time, dose: 200.0 mg/kg/injection, schedule: Q04HX003 (ip), vehicle: saline): 126 % of control [5 of 6 alive]; T/C (T/C endpoint: mean survival time, dose: 300.0 mg/kg/injection, schedule: Q01DX009 (ip), vehicle: saline): 131 % of control; T/C [2]: 127 % of control; T/C (T/C endpoint: mean survival time, dose: 400.0 mg/kg/injection, schedule: Q04HX003 (ip), vehicle: saline): 125 % of control; survivor count (T/C endpoint: mean survival time, dose: 1200.0 mg/kg/injection, schedule: Q01DX009 (ip), vehicle: saline): 2 of 6; T/C (T/C endpoint: median survival time, dose: 80.0 mg/kg/injection, schedule: Q12HX018 (ip), vehicle: saline): 126 % of control [9 of 10 alive]; T/C (T/C endpoint: median survival time, dose: 160.0 mg/kg/injection, schedule: Q01DX009 (ip), vehicle: saline): 132 % of control; T/C (T/C endpoint: median survival time, dose: 160.0 mg/kg/injection, schedule: Q02DX005 (ip), vehicle: saline): 125 % of control; T/C (T/C endpoint: median survival time, dose: 160.0 mg/kg/injection, schedule: Q04HX020 (ip), vehicle: saline): 128 % of control; T/C (T/C endpoint: median survival time, dose: 160.0 mg/kg/injection, schedule: Q11DX017 (ip), vehicle: saline): 129 % of control; T/C (T/C endpoint: median survival time, dose: 160.0 mg/kg/injection, schedule: Q12HX010 (ip), vehicle: saline): 129 % of control; T/C (T/C endpoint: median survival time, dose: 160.0 mg/kg/injection, schedule: Q12HX018 (ip), vehicle: saline): 126 % of control [8 of 10 alive]; T/C (T/C endpoint: median survival time, dose: 320.0 mg/kg/injection, schedule: Q01DX009 (ip), vehicle: saline): 137 % of control; T/C (T/C endpoint: median survival time, dose: 320.0 mg/kg/injection, schedule: Q04HX020 (ip), vehicle: saline): 134 % of control [8 of 10 alive]; T/C (T/C endpoint: median survival time, dose: 320.0 mg/kg/injection, schedule: Q11DX017 (ip), vehicle: saline): 140 % of control; T/C (T/C endpoint: median survival time, dose: 320.0 mg/kg/injection, schedule: Q12HX010 (ip), vehicle: saline): 136 % of control; T/C (T/C endpoint: median survival time, dose: 320.0 mg/kg/injection, schedule: Q12HX018 (ip), vehicle: saline): 134 % of control [8 of 10 alive]; T/C (T/C endpoint: median survival time, dose: 640.0 mg/kg/injection, schedule: Q01DX009 (ip), vehicle: saline): 130 % of control; T/C (T/C endpoint: median survival time, dose: 640.0 mg/kg/injection, schedule: Q11DX017 (ip), vehicle: saline): 144 % of control [9 of 10 alive]; T/C (T/C endpoint: median survival time, dose: 640.0 mg/kg/injection, schedule: Q12HX010 (ip), vehicle: saline): 136 % of control [8 of 10 alive]

Q: CC(=O)OCC(OC(C)=O)C(OC(C)=O)C(/C=C/N=[N+]([O-])c1ccccc1)OC(C)=O (stereo not drawn) was tested. Which survivor count [1] did it give?
A: 0 of 4

Q: Which survivor count [3] does the source give for OC1(C#[C][Hg][C]#CC2(O)CCCCC2)CCCCC1 here?
A: 0 of 6

Q: CNC1(C)CCC(C)C1 (stereo not drawn) (tested in a mixture with another compound) was tested. Which survivor count (T/C endpoint: mean survival time, dose: 113.0 mg/kg/injection, schedule: Q01DX Z (ip), vehicle: methylcellulose (MC)) did it give?
A: 6 of 7

Q: And the survivor count (T/C endpoint: mean survival time, dose: 225.0 mg/kg/injection, schedule: Q01DX Z (ip), vehicle: methylcellulose (MC))?
A: 6 of 7

Q: CCOc1ccc(Nc2nc(=O)[nH]c3ccccc23)cc1CN(CCCl)CCCl was tested. Which T/C (T/C endpoint: mean survival time, dose: 100.0 mg/kg/injection, schedule: Q04DX002 (ip), vehicle: saline) did it give?
A: 130 % of control

Q: What does the source list for COc1cc2c(cc1OC)C(C)=[N+](C)CC2?
A: survivor count (T/C endpoint: mean survival time, dose: 100.0 mg/kg/injection, schedule: Q04DX003 (ip), vehicle: acetone): 6 of 6; survivor count (T/C endpoint: mean survival time, dose: 200.0 mg/kg/injection, schedule: Q04DX003 (ip), vehicle: acetone): 0 of 6; survivor count (T/C endpoint: mean survival time, dose: 400.0 mg/kg/injection, schedule: Q04DX003 (ip), vehicle: acetone): 0 of 6

Q: c1ccc([P+](c2ccccc2)(c2ccccc2)c2ccc([P+](c3ccccc3)(c3ccccc3)c3ccccc3)c3ccccc23)cc1 was tested. Which T/C (T/C endpoint: mean survival time, dose: 1.56 mg/kg/injection, schedule: Q04DX003 (ip), vehicle: Klucel (hydroxypropylcellulose) (HPC)) did it give?
A: 135 % of control

Q: And the survivor count (T/C endpoint: mean survival time, dose: 12.5 mg/kg/injection, schedule: Q04DX003 (ip), vehicle: Klucel (hydroxypropylcellulose) (HPC))?
A: 0 of 6

Q: And the survivor count (T/C endpoint: mean survival time, dose: 25.0 mg/kg/injection, schedule: Q04DX003 (ip), vehicle: Klucel (hydroxypropylcellulose) (HPC))?
A: 0 of 6

Q: And the survivor count (T/C endpoint: mean survival time, dose: 50.0 mg/kg/injection, schedule: Q04DX003 (ip), vehicle: Klucel (hydroxypropylcellulose) (HPC))?
A: 0 of 6

Q: And the survivor count (T/C endpoint: mean survival time, dose: 100.0 mg/kg/injection, schedule: Q04DX003 (ip), vehicle: Klucel (hydroxypropylcellulose) (HPC))?
A: 0 of 6

Q: What about the survivor count (T/C endpoint: mean survival time, dose: 200.0 mg/kg/injection, schedule: Q04DX003 (ip), vehicle: Klucel (hydroxypropylcellulose) (HPC)) of the same compound?
A: 0 of 6

Q: And the survivor count [3]?
A: 0 of 6

Q: With CC1CN=C(c2ccc(NC(=O)Nc3ccc(C(=O)Nc4ccc(C5=NCC(C)N5)cc4)cc3)cc2)N1 (stereo not drawn) as the compound, how does the T/C (T/C endpoint: mean survival time, dose: 3.75 mg/kg/injection, schedule: Q01DX Z (ip), vehicle: saline) read?
A: 130 % of control

Q: What about the survivor count (T/C endpoint: mean survival time, dose: 60.0 mg/kg/injection, schedule: Q01DX Z (ip), vehicle: other) of the same compound?
A: 0 of 6

Q: And the survivor count (T/C endpoint: mean survival time, dose: 120.0 mg/kg/injection, schedule: Q01DX Z (ip), vehicle: other)?
A: 0 of 6

Q: Which T/C (T/C endpoint: mean survival time, dose: 12.5 mg/kg/injection, schedule: Q04DX002 (ip), vehicle: carboxymethylcellulose (CMC)) does the source give for CCCCCCCCCCCCCCCCCC[N+]1(CC)CCOCC1 here?
A: 90, 92, 97, 107 % of control

Q: And the survivor count (T/C endpoint: mean survival time, dose: 25.0 mg/kg/injection, schedule: Q01DX009 (ip), vehicle: carboxymethylcellulose (CMC))?
A: 0 of 6 and 1 of 3

Q: What about the survivor count (T/C endpoint: mean survival time, dose: 50.0 mg/kg/injection, schedule: Q04DX002 (ip), vehicle: carboxymethylcellulose (CMC)) of the same compound?
A: 0 of 3 and 5 of 6

Q: What about the survivor count (T/C endpoint: mean survival time, dose: 100.0 mg/kg/injection, schedule: Q04DX002 (ip), vehicle: carboxymethylcellulose (CMC)) of the same compound?
A: 0 of 3 and 0 of 6

Q: What about the survivor count (T/C endpoint: mean survival time, dose: 200.0 mg/kg/injection, schedule: Q04DX002 (ip), vehicle: carboxymethylcellulose (CMC)) of the same compound?
A: 0 of 3 and 0 of 6

Q: What about the survivor count (T/C endpoint: mean survival time, dose: 400.0 mg/kg/injection, schedule: Q04DX002 (ip), vehicle: carboxymethylcellulose (CMC)) of the same compound?
A: 0 of 3 and 0 of 6

Q: CCCCOC(=O)CNC(=O)N(CC)C(=NCC)c1ccc(NC(=O)c2ccc(C(=O)Nc3ccc(C(=NCC)N(CC)C(=O)NCC(=O)OCCCC)cc3)cc2)cc1 was tested. Which T/C (T/C endpoint: mean survival time, dose: 3.75 mg/kg/injection, schedule: Q01DX015 (ip), vehicle: methylcellulose (MC)) did it give?
A: 130 and 134 % of control [5 of 6 alive]

Q: And the survivor count (T/C endpoint: mean survival time, dose: 15.0 mg/kg/injection, schedule: Q01DX015 (ip), vehicle: methylcellulose (MC))?
A: 3 of 6

Q: What about the survivor count (T/C endpoint: mean survival time, dose: 30.0 mg/kg/injection, schedule: Q01DX015 (ip), vehicle: methylcellulose (MC)) of the same compound?
A: 0 of 6

Q: What about the survivor count (T/C endpoint: mean survival time, dose: 62.0 mg/kg/injection, schedule: Q01DX015 (ip), vehicle: methylcellulose (MC)) of the same compound?
A: 0 of 6

Q: And the survivor count (T/C endpoint: mean survival time, dose: 125.0 mg/kg/injection, schedule: Q01DX015 (ip), vehicle: methylcellulose (MC))?
A: 0 of 6

Q: And the survivor count (T/C endpoint: mean survival time, dose: 250.0 mg/kg/injection, schedule: Q01DX015 (ip), vehicle: methylcellulose (MC))?
A: 0 of 6

Q: What about the survivor count (T/C endpoint: mean survival time, dose: 500.0 mg/kg/injection, schedule: Q01DX015 (ip), vehicle: methylcellulose (MC)) of the same compound?
A: 0 of 6

Q: How did the survivor count [2] turn out when COc1cc2c(cc1OCc1ccccc1)C(C#N)N(C(=O)c1ccccc1)C=C2 (stereo not drawn) was run?
A: 6 of 6

Q: For C=C(Cl)c1c(C)cc(C)cc1C, which survivor count (T/C endpoint: mean survival time, dose: 200.0 mg/kg/injection, schedule: Q01DX009 (ip), vehicle: saline with Tween-80) is on record?
A: 2 of 6

Q: And the survivor count (T/C endpoint: mean survival time, dose: 400.0 mg/kg/injection, schedule: Q01DX009 (ip), vehicle: saline with Tween-80)?
A: 0 of 6

Q: What about the survivor count (T/C endpoint: mean survival time, dose: 400.0 mg/kg/injection, schedule: Q04DX003 (ip), vehicle: saline with Tween-80) of the same compound?
A: 0 of 6
